According to US12209145B2 (Merck Sharp & Dohme LLC, priority 2018, dated 2025):

Test: general procedure: Fmoc solid-phase peptide synthesis; PS Rink-Amide MBHA resin; HATU/DIPEA; DIC/Oxyme
Settings: whole synthesis, scale 0.250 mmol, TFA, Cl or AcOH salts (Table 2)

Substance	crude mass
Reagent A Int-A	399 mg
Reagent B Int-A	300 mg
